# Laboratory results from PMC9506415.
# Biological target: human fibronectin (human)
# Test: affinity chromatography with MALDI-TOF MS; synthesized peptides mixed 1:1 by mass (GIA: peptides 1 and 2; GPP: peptides 3 and 4), loaded on a micro FN-affinity column (100 μL), washed until the wash held no sample, eluate read by MALDI-TOF MS; both purified
row,Binder,binding
1,"GAPGADGPAGAPGTPGPQGIAGQR [synthesized peptide 1, …]",binds
2,"GPPGPMGPPGLAGPPGESGR [synthesized peptide 3, …]",binds

# These are yes or no findings as the source states them, for the method shown. Binding calls can cover weak binding; strength is not graded here.
